Article PMC10566187
No constants are given. Whether binding was seen depends on the method and setting. In cells and extracts the contact can be indirect. Some binding calls cover weakened binding; strength is not graded here. Sequences can lack the tags named with a protein.

Target: T1, meiotic nuclear divisions 1 (MND1), Flag-tagged (UniProt Q9BWT6)
T1 sequence: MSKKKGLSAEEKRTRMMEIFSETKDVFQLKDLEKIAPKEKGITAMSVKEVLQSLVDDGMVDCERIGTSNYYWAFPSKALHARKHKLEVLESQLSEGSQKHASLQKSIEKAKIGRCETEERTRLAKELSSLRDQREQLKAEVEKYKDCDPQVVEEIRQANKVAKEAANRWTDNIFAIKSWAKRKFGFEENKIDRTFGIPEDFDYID
Experiment: co-IP; CO-IP kit (Absin), detection by Western blot; cells and direction of the precipitation not given

binding: binds
B1: transketolase (TKT) (protein, UniProt P29401 1-623)
chain: MESYHKPDQQKLQALKDTANRLRISSIQATTAAGSGHPTSCCSAAEIMAVLFFHTMRYKSQDPRNPHNDRFVLSKGHAAPILYAVWAEAGFLAEAELLNLRKISSDLDGHPVPKQAFTDVATGSLGQGLGAACGMAYTGKYFDKASYRVYCLLGDGELSEGSVWEAMAFASIYKLDNLVAILDINRLGQSDPAPLQHQMDIYQKRCEAFGWHAIIVDGHSVEELCKAFGQAKHQPTAIIAKTFKGRGITGVEDKESWHGKPLPKNMAEQIIQEIYSQIQSKKKILATPPQEDAPSVDIANIRMPSLPSYKVGDKIATRKAYGQALAKLGHASDRIIALDGDTKNSTFSEIFKKEHPDRFIECYIAEQNMVSIAVGCATRNRTVPFCSTFAAFFTRAFDQIRMAAISESNINLCGSHCGVSIGEDGPSQMALEDLAMFRSVPTSTVFYPSDGVATEKAVELAANTKGICFIRTSRPENAIIYNNNEDFQVGQAKVVLKSKDDQVTVIGAGVTLHEALAAAELLKKEKINIRVLDPFTIKPLDRKLILDSARATKGRILTVEDHYYEGGIGEAVSSAVVGEPGITVTHLAVNRVPRSGKPAELLKMFGIDRDAIAQAVRGLITKA
